Where two headings read alike, the source gives them in different places. In all, about 3,300 compounds went through this assay and about 60 (2%) showed an effect of 50% or more. This is one part of the list.
System: HCoV-OC43
Set-up: species or system RD; HTS, protection from HCoV-OC43 induced cell death, luminescent cell viability (CellCounting-Lite 2.0), inhibition rate
Conditions: 24 h post infection, 1 h compound pre-incubation, 10 µM, inhibitor

## CCCCC[C@H](O)/C=C/[C@H]1C(=O)C[C@H](O)[C@@H]1C/C=C\CCCC(=O)O [Prostaglandin D2]
  OC43 Inhibition rate: 1.7%

## CC(C)(C)CC(C)(C)c1ccc(O)cc1 [4-tert-Octylphenol]
  OC43 Inhibition rate: -0.1%

## CC(C)=CCc1c(O)ccc(C(=O)[C@@H]2[C@@H](c3c(O)cc(O)c4c(=O)c(CC=C(C)C)c(-c5ccc(O)cc5O)oc34)C=C(C)C[C@H]2c2ccc(O)cc2O)c1O [Kuwanon H]
  OC43 Inhibition rate: 13.4%

## CC(C)=CCC[C@@H](C)[C@H]1CC[C@H]2[C@@H]3CC=C4C[C@@H](O)CC[C@]4(C)[C@H]3CC[C@]12C [Desmosterol]
  OC43 Inhibition rate: -0.3%

## COc1cc2c(cc1O)-c1c(OC)c(O)cc3c1[C@H](C2)NCC3 [Laetanine]
  OC43 Inhibition rate: -1.2%

## O=C(CC(O)(CC(=O)OCc1ccc(O[C@@H]2O[C@H](CO)[C@@H](O)[C@H](O)[C@H]2O)cc1)C(=O)O)OCc1ccc(O[C@@H]2O[C@H](CO)[C@@H](O)[C@H](O)[C@H]2O)cc1 [Parishin C]
  OC43 Inhibition rate: -0.4%

## O=c1cccccc1O [Tropolone]
  OC43 Inhibition rate: 4.3%

## O=C1O[C@H]([C@@H](O)CO)C(O)=C1O[C@@H]1O[C@H](CO)[C@@H](O)[C@H](O)[C@H]1O [2-O-β-D-Glucopyranosyl-L-ascorbic acid]
  OC43 Inhibition rate: 1.4%

## Nc1ncnc2c1ncn2[C@H]1C[C@H](O)[C@@H](CO)O1 [2'-Deoxyadenosine monohydrate]
OC43 Inhibition rate, 24 h
  OC43 Inhibition rate: -2.3%

## COc1cc(O[C@@H]2O[C@H](CO[C@@H]3O[C@H](CO)[C@@H](O)[C@H](O)[C@H]3O)[C@@H](O)[C@H](O)[C@H]2O)c2c(O)c3c(=O)oc(C)cc3cc2c1 [Cassiaside C]
  OC43 Inhibition rate: -1.8%

## O=C(CCc1ccc(O)c(O)c1)NCCCNCCCCNCCCNC(=O)CCc1ccc(O)c(O)c1 [Kukoamine A]
  OC43 Inhibition rate: 2.2%

## CCCCCCCC(=O)O [Octanoic acid]
  OC43 Inhibition rate: -0.3%

## CC(CCC(=O)O)C(=O)O (centres unmarked) [2-Methylpentanedioic acid]
  OC43 Inhibition rate: -0.3%

## O=c1cc(-c2ccc(O)c(O)c2)oc2cc(O)c([C@@H]3O[C@H](CO)[C@@H](O)[C@H](O)[C@H]3O)c(O)c12 [Isoorientin]
  OC43 Inhibition rate: 0.3%

## CCOC(=O)/C=C/c1ccc(O)cc1 [p-Coumaric Acid Ethyl Ester]
  OC43 Inhibition rate: 0%

## CC(C)C[C@@H](O)C(=O)O [(R)-Leucic acid]
  OC43 Inhibition rate: -0.7%

## C[C@@H]1O[C@@H](OC[C@H]2O[C@@H](Oc3c(-c4ccc(O)cc4)oc4cc(O)cc(O)c4c3=O)[C@H](O[C@@H]3O[C@H](CO)[C@@H](O)[C@H](O)[C@H]3O)[C@@H](O)[C@@H]2O)[C@H](O)[C@H](O)[C@H]1O [Kaempferol-3-O-(2''-O-β-D-glucopyl)-β-D-rutinoside]
  OC43 Inhibition rate: 0.7%

## CC(C)=CCC[C@@](O)(CO[C@@H]1O[C@H](CO)[C@@H](O)[C@H](O)[C@H]1O)[C@H]1CC[C@]2(C)[C@@H]1CC[C@@H]1[C@@]3(C=O)CC[C@H](O[C@@H]4OC[C@H](O)[C@H](O[C@@H]5OC[C@@H](O)[C@H](O)[C@H]5O)[C@H]4O[C@@H]4O[C@@H](C)[C@H](O)[C@@H](O)[C@H]4O)C(C)(C)[C@@H]3CC[C@]12C [Gypenoside XLIX]
  OC43 Inhibition rate: -0.4%

## COc1ccc(C2CC(=O)c3c(O)cc(O)cc3O2)cc1O (racemic) [(Rac)-Hesperetin]
  OC43 Inhibition rate: 0.5%

## C/C=C(/C)C(=O)O[C@@H]1c2c(ccc3ccc(=O)oc23)OC(C)(C)[C@@H]1OC(=O)/C(C)=C\C [(-)-Anomalin]
  OC43 Inhibition rate: 32.9%

## COc1cc(O)c2c(c1)O[C@H](c1ccccc1)CC2=O [Pinostrobin]
  OC43 Inhibition rate: 1%

## C=C[C@H]1[C@H](O[C@@H]2O[C@H](CO)[C@@H](O)[C@H](O)[C@H]2O)OC=C(C(=O)OC)[C@H]1CCOC(=O)c1cccc(O[C@@H]2O[C@H](CO)[C@@H](O)[C@H](O)[C@H]2O)c1O [Depressine]
  OC43 Inhibition rate: 0.1%

## Cc1cccc2c3c(ccc12)C1=C(C(=O)C3=O)[C@@H](C)CO1 [Dihydrotanshinone I]
  OC43 Inhibition rate: 1%

## O=C1CCC[C@@H]2[C@H]3CCCN4CCC[C@@H](CN12)[C@H]34 [Allomatrine]
  OC43 Inhibition rate: 2.9%

## COC(=O)Cc1c[nH]c2ccccc12 [Methyl 2-(1H-indol-3-yl)acetate]
  OC43 Inhibition rate: -0.1%

## C[C@]12CC[C@@H]3c4ccc(O)cc4CC[C@H]3[C@@H]1C[C@@H](O)[C@@H]2O [Estriol]
  OC43 Inhibition rate: -0.2%

## Cc1ccc(CO)o1 [5-Methyl-2-furanmethanol]
  OC43 Inhibition rate: -2.2%

## CC(=O)OC[C@H]1O[C@@H](OC[C@H]2O[C@@H](OC(=O)[C@]34CCC(C)(C)C[C@H]3C3=CC[C@@H]5[C@@]6(C)CC[C@H](O[C@@H]7OC[C@H](O)[C@H](O)[C@H]7O[C@@H]7O[C@H](CO)[C@@H](O)[C@H](O)[C@H]7O)C(C)(C)[C@@H]6CC[C@@]5(C)[C@]3(C)CC4)[C@H](O)[C@@H](O)[C@@H]2O)[C@H](O)[C@@H](O)[C@@H]1O[C@@H]1O[C@@H](C)[C@H](O)[C@@H](O)[C@H]1O [Acanthopanaxoside B]
  OC43 Inhibition rate: 7.1%

## O=C(/C=C/c1ccc(O)cc1)c1ccc(O[C@@H]2O[C@H](CO)[C@@H](O)[C@H](O)[C@H]2O)cc1O [Neoisoliquiritin]
  OC43 Inhibition rate: 0.2%

## Cc1cnccn1 [2-Methylpyrazine]
  OC43 Inhibition rate: 3.3%

## COc1c(/C=C/C(=O)c2ccc(O)cc2)ccc(O)c1O [Licochalcone B]
  OC43 Inhibition rate: 45.6%

## O=C(O)[C@@H]1CCN1 [L-Azetidine-2-carboxylic acid]
  OC43 Inhibition rate: -0.5%

## COc1cc([C@H]2Oc3ccc(-c4cc(=O)c5c(O)cc(O)cc5o4)cc3O[C@@H]2CO)ccc1O (racemic) [(Rac)-Hydnocarpin]
  OC43 Inhibition rate: 0%

## C=CCS[S+]([O-])CC=C (centres unmarked) [Allicin]
  OC43 Inhibition rate: 0.3%

## CCCCCC(=O)CC(=O)NC1CCOC1=O (racemic) [N-(3-Oxooctanoyl)-DL-homoserine lactone]
  OC43 Inhibition rate: 8.5%

From paper PMC12431657, “Discovery and mechanistic insights of dibenzoylmethane as a broad spectrum inhibitor of coronavirus” (PLOS Pathogens, 2025)
